± gives the standard deviation of the averaged measurements. The list shows a part of the results. Single values are uncertain, as repeats are few or missing.
Tested on: RAW 264.7 macrophages infected with S. aureus JE2-lux
Assay: host macrophage viability (CellTiter-Fluor) relative to DMSO vehicle; higher = more viable host cells
Conditions: 10 µM; treatment time 4 h; gentamicin 50 µg/ml

Compound	host macrophage viability
O=C(COc1ccc2ccccc2c1)Nc1nnc2n1CCS2	127%
N#CC1=C(N)OC2=C(C(=O)CC(c3ccccc3)C2)C1C1CCCCC1 (centres undefined)	103%
COc1ccc(Cn2ccc3nc(C)c(C(=O)NCc4ccc(Cl)cc4)cc3c2=O)cc1	129%
Nn1c(SCC(=O)N2CCCCCC2)nncc1=O	114%
CC(=O)Nc1cccc(NC(=O)CSc2nc(=O)n3cc(Cl)ccc3n2)c1	105%
CC1CCCCN1S(=O)(=O)c1ccc(C(=O)Nc2ccccc2Oc2ccccc2)cc1 (centres undefined)	104%
COc1ccc2cc(CCNC(=O)c3ccc([N+](=O)[O-])cc3)c(=O)[nH]c2c1	133%
CC(=O)C(C)n1c(CN2CCN(C(=O)c3ccco3)CC2)nc2c1c(=O)n(C)c(=O)n2C (centres undefined)	104%
Cc1nc(-c2ccccc2)c(CC(=O)NC(c2cccs2)C(C)C)s1 (centres undefined)	117%
Cc1ccccc1/N=c1\oc2ccc([N+](=O)[O-])cc2cc1C(N)=O	116 ± 11%
CCN(C(=O)Cc1ccccc1OC)c1nc2c(s1)CCc1occc1-2	136%
Cc1cc(C)n(-c2cc(N3CCN(c4ccccc4)CC3)ncn2)n1	86.3%
COC(=O)c1ccc(NC(=O)CSc2nc3sc4c(c3c(=O)[nH]2)CCCC4)cc1	110%
CC(C)C(C(=O)Nc1ccccc1)N1C(=O)c2ccccc2C1=O (centres undefined)	99.6%
Cc1ccc(C)c2[nH]c(=O)c(CCNC(=S)NCCn3ccc4ccccc43)cc12	106 ± 10%
Cc1nc(Oc2cccc(Cl)c2)c2c3c(sc2n1)CCCC3	124%
Cc1nn2c(C)c(C(=O)Nc3ccc(C(C)C)cc3)cnc2c1-c1ccccc1	137%
N#CC1=C(S)N(c2ccccc2)C(c2ccc(-c3ccccc3[N+](=O)[O-])o2)NC1=O (centres undefined)	125%
CCc1c(C)nc(N2CCN(c3cccc(OC)c3)CC2)[nH]c1=O	139%
O=C(CN(Cc1ccco1)C(=O)C(=O)Nc1ccc2c(c1)OCCO2)NC1CCCC1	107%
O=C(CCSc1ccc(F)cc1)Nc1nc2c(s1)CCC2	116%
CCOc1ccc(NC(=O)c2nc3c(=O)n(Cc4ccccc4C)c4cc(C)ccc4n3n2)cc1	112%
COc1cc2nc(NC(=O)c3cc4cc([N+](=O)[O-])ccc4s3)sc2cc1OC	103%
O=c1nc(SCc2cccc3ccccc23)c2c(n1CCO)CCCC2	100%
COC(=O)c1ccc(NC(=O)CCN2C(=O)CSC2=O)cc1	119%
COc1ccc(CCNc2nccn(Cc3ccc(Cl)cc3)c2=O)cc1OC	117%

Compound	host macrophage viability
O=C(NC1CC(=O)N(c2ccc3c(c2)OCCO3)C1)N1CCN(c2ccccc2F)CC1 (centres undefined)	120%
CC(=O)Nc1nc(C(=O)Nc2ccc3nc(C)[nH]c3c2)cs1	110%
Fc1ccc2nc(Nc3nc(-c4cccs4)cs3)sc2c1	119 ± 12%
Cc1sc2nc(C)n(C3CCN(C(=O)c4n[nH]c5c4CCC5)CC3)c(=O)c2c1C	116%
Cc1cccc(CSC2=NCCN2C(=O)c2cccs2)c1	100 ± 12%
COc1ccc2oc(=O)c(/C(N)=N/NC(=O)c3ccncc3)cc2c1	116 ± 6.1%
O=C(NCc1cccnc1)c1ncoc1-c1cccc(Cl)c1	93.1%
CSc1ccccc1NC(=O)c1cnc2n(c1=O)CCS2	121%
O=C(CSc1nc(-c2ccccc2)c2ccccc2n1)NCc1ccc2c(c1)OCO2	124%
Cn1ncc2c(NCc3ccccc3)nc(NC3CCCC3)nc21	109%
Clc1ccc(Cl)c2sc(N3CCOCC3)nc12	107 ± 11%
COc1ccccc1OCCN(C)C(=O)c1sc2ncn(C)c(=O)c2c1C	128%
O=c1nc(SCc2c(F)cccc2Cl)c2c([nH]1)CCC2	109%
CCOC(=O)c1c(C)oc2c1cc(NS(=O)(=O)c1cccc3cccnc13)c1ccccc12	120%
CCc1cccc(CC)c1NC(=O)CSc1nnc(NC(=O)c2ccco2)s1	119%
C=CCOCC(O)Cn1c(N2CCN(Cc3ccccc3)CC2)nc2c1c(=O)[nH]c(=O)n2C (centres undefined)	109%
O=c1[nH]c(=O)n(C2CC(O)C(CO)O2)cc1I (centres undefined)	105%
Cc1ccc(NC(=O)Nc2c(-n3cnnc3)nn(C)c2C)cc1	89.8%
Cc1nc(CNS(=O)(=O)c2cc([N+](=O)[O-])ccc2C)cs1	109 ± 9.9%
COc1ccc([N+](=O)[O-])cc1NC(=O)c1ccccc1NS(=O)(=O)c1ccccc1	96.7%
O=C1C=C/C(=N\Oc2ccc([N+](=O)[O-])cc2[N+](=O)[O-])c2cccnc21	94.9%
COCCn1ccc2nc(C)c(C(=O)Nc3cc(OC)cc(OC)c3)cc2c1=O	121%
Cc1oc2ncnc(Oc3ccccc3F)c2c1C	131%
COc1ccc(C2NC(=S)NC(C)=C2C(=O)Nc2ccc(F)c(F)c2)cc1OC (centres undefined)	112%
O=C(Nc1nc2c(Cl)c(Cl)ccc2s1)c1cc2ccccc2oc1=O	98.6%
COc1ccc(-c2ocnc2C(=O)N2CCC(C(N)=O)CC2)cc1OC	117%

Compound	host macrophage viability
COC(=O)c1ccccc1NC(=O)c1cnc2c(-c3ccccc3)c(C)nn2c1C	134%
Cc1nc(NCCC2=CCCCC2)c2onc(-c3ccccc3)c2n1	82.4%
O=C(NCCCN1CCOCC1)c1cc(-c2ccccc2)nc2n[nH]c(-c3ccc(F)cc3)c12	117%
CC(C)CNC(=S)N1CCC(n2cnc3cc(F)ccc32)CC1	107%
COC(=O)c1[nH]c(C)c(C(=O)C2=C(O)C(=O)N(CCN(C)C)C2c2ccncc2)c1C (centres undefined)	106%
Cc1nonc1CC(=O)NCCn1nc2c(C)cc3ccccc3n2c1=O	118%
O=C(CSc1nc(=O)[nH]c2c1CCC2)c1ccc(F)cc1	110%
O=c1[nH]c(=O)c2cc(S(=O)(=O)Nc3ccccc3-c3ccccc3)ccc2[nH]1	95.2%
O=C(NCc1ccccc1)C(c1cccs1)N(C(=O)c1ccccn1)c1ccccc1F (centres undefined)	107%
Cn1c(=O)c2c(SCC(=O)Nc3ccc(F)cc3)nc(-c3cccs3)nc2n(C)c1=O	107 ± 8.3%
CCOc1ccc(S(=O)(=O)N2CCN(c3cc(Nc4ccc(C)cc4)nc(C)n3)CC2)cc1	109%
O=C(N/N=C\c1cccnc1)c1n[nH]c2c1CCCC2	98.7%
Cc1c(NC(=O)CN2C(=O)C(=O)c3ccccc32)c(=O)n(-c2ccccc2)n1C	119%
COc1cc(C(=O)Nc2c[nH]c3ccccc23)c2ccccc2n1	104%
COc1ccc(-c2csc3ncnc(NCCCO)c23)cc1	104%
CN1CCOc2ccc(NC(=O)c3ccc(F)cc3)cc2C1=O	123%
CCCCOc1ccc(CNC(=O)C2CCN(c3ccc4nnc(C)n4n3)CC2)cc1	116%
COc1ccc(C(=O)Nc2nc(CC(=O)NCc3cccnc3)cs2)cc1	110%
COc1ccc(Cl)cc1NS(=O)(=O)c1cc2c3c(c1)C(C)C(=O)N3CCC2 (centres undefined)	110%
Cc1cccc2c(C(=O)Nc3cccc(C(=O)N4CCCCC4)c3)cc(O)nc12	102%
Cc1cnn(Cc2ccccc2)c1NC(=O)c1ncoc1-c1ccc(F)cc1	128%
Brc1cccc2sc(N3CCOCC3)nc12	112 ± 15%
CC(=O)Nc1ccc(C(O)CN2CCC3(CC2)CC(O)c2cc(C)c(C)cc2O3)cc1 (centres undefined)	109%
Cc1ccc2c(c1)/C(=N/NC(=O)CCCCCC(=O)N/N=C1/C(=O)Nc3ccc(C)cc31)C(=O)N2	119%
O=C1CC(c2nc3ccccc3[nH]2)CN1c1cccc(C(F)(F)F)c1 (centres undefined)	124 ± 17%
Cc1nc(OCC(=O)NC2CCS(=O)(=O)C2)c2c(C)c(C)oc2n1 (centres undefined)	129%

Compound	host macrophage viability
Cc1oc(-c2ccno2)cc1S(=O)(=O)N1CCN(c2ccc(F)cc2)CC1	109%
CC1CN(C(=O)Cn2cnc3c(cnn3-c3cccc(Cl)c3)c2=O)CC(C)O1 (centres undefined)	120%
CCOC(=O)C1=C(C)N=c2s/c(=C3\C(=O)Nc4ccccc43)c(=O)n2C1c1cccs1 (centres undefined)	91.1%
COc1ccc(-c2nn(Cc3ccc(C)cc3)c(=O)c3noc(C)c23)cc1	98.5%
Cc1nn(Cc2noc(-c3cc4ccccc4[nH]3)n2)c(C)c1S(=O)(=O)N1CCCC1	86.7%
Cc1cccn2c(=O)nc(SCC(=O)N(C(C)C)C(C)C)nc12	120%
O=C(COc1ccccc1)Nc1ccc(-c2cn3ccccc3n2)cc1	133%
COc1ccc(CN2CC3=C(C2=O)C(c2ccc(Cl)cc2)NC(=O)N3)cc1 (centres undefined)	101%
Cc1cc2nnc(SCC(=O)Nc3ccc4c(c3)OCO4)n2c2ccccc12	119%
CCOc1ccc(C)cc1S(=O)(=O)Nc1ccc2c(c1)C(=O)Nc1ccccc1O2	114%
O=C(OC(C(=O)NCc1ccc(F)cc1)c1ccc2ncccc2c1)c1cccs1 (centres undefined)	97.6%
N#C/C(=C/c1ccc(Cl)cc1)C(=O)Nc1sc2c(c1C(N)=O)CCCC2	116.3 ± 0.33%
O=c1c2cnn(CCO)c2ncn1Cc1ccccc1Cl	117%
CCOc1ccc(Cn2c(=O)c3sccc3n3c(=S)[nH]nc23)cc1OCC	103%
COC(=O)c1ccc(CSc2nc(N)c3c4c(sc3n2)CCC4)cc1	113%
CCCN1C(=O)/C(=C2\SC(=N)NC2=O)c2cc(Br)ccc21	114%
Cc1cc(C)c2cc(CNCc3ccccc3C)c3nn(C)c(=O)n3c2c1	130%
O=C(NC1CCCC1)C(c1ccc2ncccc2c1)N(Cc1cccs1)C(=O)c1ccc(O)cc1 (centres undefined)	110%
COc1cccc(CNC(=O)CSc2nnc3ccc(C(=O)NCc4ccccc4)cn23)c1	122%
O=C(COc1ccc(Cl)cc1Cl)Nc1nnc2n1CCS2	116%
COc1ccc(-c2nnc(Nc3ccc4c(c3)OCO4)[nH]c2=O)cc1	113%
Cc1ccc(S(=O)(=O)n2nc(-c3ccc(C)c(C)c3)nc2N)cc1	93.2%
CCc1ccc(Nc2nc(C)c3ncn(-c4ccc(CC)cc4)c3n2)cc1	102%
COCCn1c(SCC(=O)Nc2nccs2)nnc1-c1c[nH]c2ccccc12	105 ± 9.2%
O=C(c1ccc(-c2nc(-c3ccccc3)no2)cc1)N1CCn2c1nc1ccccc12	89.8%
CC(C(=O)N1CCOCC1)C1CCN(C(=O)c2cc3ccccc3[nH]2)CC1 (centres undefined)	97.3%

Sorted by length of the SMILES (descending): five of the compounds above
Compound	host macrophage viability
Cc1ccc2c(c1)/C(=N/NC(=O)CCCCCC(=O)N/N=C1/C(=O)Nc3ccc(C)cc31)C(=O)N2	119%
CC(=O)C(C)n1c(CN2CCN(C(=O)c3ccco3)CC2)nc2c1c(=O)n(C)c(=O)n2C (centres undefined)	104%
CC(=O)Nc1cccc(NC(=O)CSc2nc(=O)n3cc(Cl)ccc3n2)c1	105%
O=C(Nc1nc2c(Cl)c(Cl)ccc2s1)c1cc2ccccc2oc1=O	98.6%
COc1cc(C(=O)Nc2c[nH]c3ccccc23)c2ccccc2n1	104%

Reference: the supplement of paper PMC12578635
